From publication PMC4721544
These are yes or no findings as the source states them, for the method shown. Binding seen in cells or lysates may run through a third protein. Some entries that bind do so weakly or less than the wild type. For part of these data: Sequences can lack the tags named with a protein.

Protein sequences, listed by entry. Tags and fused reporters are not part of them. Lines headed by an entry give the natural chain unless they say otherwise; changes in a name come on top.
UniProt P70460: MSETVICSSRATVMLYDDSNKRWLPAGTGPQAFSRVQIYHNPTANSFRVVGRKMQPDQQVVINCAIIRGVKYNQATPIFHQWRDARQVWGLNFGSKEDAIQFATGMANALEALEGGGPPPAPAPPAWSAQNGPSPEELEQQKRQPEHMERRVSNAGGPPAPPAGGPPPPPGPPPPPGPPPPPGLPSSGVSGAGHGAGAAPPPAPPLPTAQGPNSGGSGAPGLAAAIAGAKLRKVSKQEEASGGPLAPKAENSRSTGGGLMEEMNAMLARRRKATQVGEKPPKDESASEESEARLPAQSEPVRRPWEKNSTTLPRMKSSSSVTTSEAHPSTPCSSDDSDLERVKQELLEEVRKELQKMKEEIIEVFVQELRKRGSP

T1: FLAG-EVL (mouse) (UniProt P70429)
T1 sequence: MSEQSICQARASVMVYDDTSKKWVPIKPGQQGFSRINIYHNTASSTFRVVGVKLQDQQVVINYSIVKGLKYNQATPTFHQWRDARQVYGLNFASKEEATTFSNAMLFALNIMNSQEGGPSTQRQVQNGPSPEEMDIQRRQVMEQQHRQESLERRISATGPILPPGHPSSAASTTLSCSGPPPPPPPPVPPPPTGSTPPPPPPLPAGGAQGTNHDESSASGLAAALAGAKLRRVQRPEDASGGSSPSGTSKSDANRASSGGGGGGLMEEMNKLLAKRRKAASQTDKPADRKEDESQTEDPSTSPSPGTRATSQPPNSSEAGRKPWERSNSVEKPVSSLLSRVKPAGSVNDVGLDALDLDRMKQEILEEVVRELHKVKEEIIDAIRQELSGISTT

T2: EGFP-EVL (mouse) (UniProt P70429)
T2 sequence: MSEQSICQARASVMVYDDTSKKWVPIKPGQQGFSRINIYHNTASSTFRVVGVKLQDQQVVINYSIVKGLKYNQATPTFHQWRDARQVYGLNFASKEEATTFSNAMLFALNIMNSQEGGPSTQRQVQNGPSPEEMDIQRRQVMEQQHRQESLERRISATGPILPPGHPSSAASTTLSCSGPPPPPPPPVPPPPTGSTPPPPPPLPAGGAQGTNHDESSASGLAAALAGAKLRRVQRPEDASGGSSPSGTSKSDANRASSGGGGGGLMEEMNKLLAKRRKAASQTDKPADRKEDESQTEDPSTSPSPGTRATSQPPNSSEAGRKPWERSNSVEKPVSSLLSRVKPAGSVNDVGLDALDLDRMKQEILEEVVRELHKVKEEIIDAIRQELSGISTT


Tests used:
FLAG-EVL (mouse) = target: T1, FLAG-EVL (mouse); test: co-IP; MV^D7 cells co-transfected with a FLAG-tagged and an EGFP-tagged protein; FLAG-tagged protein precipitated with Anti-DYKDDDK magnetic beads for 2 h; EGFP-tagged partner detected by western blot; lysis buffer 1% IGEPAL CA-630, 200 mM NaCl, 50 mM TRIS pH 7.5
FLAG-VASP^WT (mouse) = FLAG-VASP^WT (mouse) (UniProt P70460); test: as above
EGFP-EVL (mouse) = target: T2, EGFP-EVL (mouse); test: co-IP; MV^D7 cells co-transfected with a FLAG-tagged and an EGFP-tagged protein; EGFP-tagged protein precipitated with rabbit polyclonal anti-GFP, Protein G Dynabeads, 4°C; FLAG-tagged partner detected by western blot; lysis buffer 1% IGEPAL CA-630, 200 mM NaCl, 50 mM TRIS pH 7.5

Molecule | binding (FLAG-EVL (mouse)) | binding (FLAG-VASP^WT (mouse)) | binding (EGFP-EVL (mouse))
EGFP-EVH2(VASP) (from UniProt P70460 221-375) (domain or fragment) | binds | binds | –
FLAG-EVL (protein, UniProt P70429-2 1-393) MSEQSICQARASVMVYDDTSKKWVPIKPGQQGFSRINIYHNTASSTFRVVGVKLQDQQVVINYSIVKGLKYNQATPTFHQWRDARQVYGLNFASKEEATTFSNAMLFALNIMNSQEGGPSTQRQVQNGPSPEEMDIQRRQVMEQQHRQESLERRISATGPILPPGHPSSAASTTLSCSGPPPPPPPPVPPPPTGSTPPPPPPLPAGGAQGTNHDESSASGLAAALAGAKLRRVQRPEDASGGSSPSGTSKSDANRASSGGGGGGLMEEMNKLLAKRRKAASQTDKPADRKEDESQTEDPSTSPSPGTRATSQPPNSSEAGRKPWERSNSVEKPVSSLLSRVKPAGSVNDVGLDALDLDRMKQEILEEVVRELHKVKEEIIDAIRQELSGISTT | – | – | binds
